Laboratory results: PubChem BioAssay AID1259254 (NCATS, 2017)

- Purpose: 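Genome-wide screen for genes that prevent DNA re-replication in cancer cells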 (primary screen)
- Cells: human HCT116 colorectal cancer cells
- Reagent: single siRNA against human genes
- Duration: 3 days
- Measured: 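Nuclei stained with Hoechst and imaged; cell-cycle phase assigned by DNA content; G2 share scaled per plate, non-targeting siRNA 0%, GMNN siRNA 100%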
- Reading the numbers: G2 robust z-score: higher = more G2 cells, more excess DNA replication
- Hit rule: 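An siRNA counts as active if its G2 robust z-score lies at least 5 MADs above the screen median; here such calls match roughly 38% of GMNN control or more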
Shown is a random part of about 59,000 reagents. In the full data, about 1,550 (2.6%) are marked active. 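G2 share is only a proxy for re-replication; each gene was hit by three separate siRNAs, and active genes were retested.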 A number with no mark means an inactive call. Reagents against one gene are numbered here. Not all columns of the deposit are shown. The record does not give: the amount of reagent.

| gene | reagent | G2 robust z-score |
| --- | --- | --- |
| PPP1R9B (protein phosphatase 1 regulatory subunit 9B) | 1 | -0.407 |
| PPP1R9B (protein phosphatase 1 regulatory subunit 9B) | 2 | 0.252 |
| PPP1R9B (protein phosphatase 1 regulatory subunit 9B) | 3 | 2.39 |
| TCL1A (TCL1 family AKT coactivator A) | 1 | 0.365 |
| TCL1A (TCL1 family AKT coactivator A) | 2 | 0.688 |
| TCL1A (TCL1 family AKT coactivator A) | 3 | -0.584 |
| GUCY2D (guanylate cyclase 2D, retinal) | 1 | 0.456 |
| GUCY2D (guanylate cyclase 2D, retinal) | 2 | -0.205 |
| GUCY2D (guanylate cyclase 2D, retinal) | 3 | -0.888 |
| CNGB1 (cyclic nucleotide gated channel subunit beta 1) | 1 | 0.53 |
| CNGB1 (cyclic nucleotide gated channel subunit beta 1) | 2 | -0.563 |
| CNGB1 (cyclic nucleotide gated channel subunit beta 1) | 3 | 1.1 |
| LYN (LYN proto-oncogene, Src family tyrosine kinase) | 1 | 0.984 |
| LYN (LYN proto-oncogene, Src family tyrosine kinase) | 2 | -0.864 |
| LYN (LYN proto-oncogene, Src family tyrosine kinase) | 3 | 0.312 |
| NDOR1 (NADPH dependent diflavin oxidoreductase 1) | 1 | 0.703 |
| NDOR1 (NADPH dependent diflavin oxidoreductase 1) | 2 | -0.494 |
| NDOR1 (NADPH dependent diflavin oxidoreductase 1) | 3 | 0.917 |
| NDOR1 (NADPH dependent diflavin oxidoreductase 1) | 4 | 0.776 |
| NDOR1 (NADPH dependent diflavin oxidoreductase 1) | 5 | 0.621 |
| NDOR1 (NADPH dependent diflavin oxidoreductase 1) | 6 | -0.288 |
| ETV3 (ETS variant transcription factor 3) | 1 | -0.528 |
| ETV3 (ETS variant transcription factor 3) | 2 | 0.729 |
| ETV3 (ETS variant transcription factor 3) | 3 | 4.07 |
| SIX5 (SIX homeobox 5) | 1 | -0.315 |
| SIX5 (SIX homeobox 5) | 2 | -0.517 |
| SIX5 (SIX homeobox 5) | 3 | -0.619 |
| BMP2KL (BMP2 inducible kinase like (pseudogene)) | 1 | 4.62 |
| BMP2KL (BMP2 inducible kinase like (pseudogene)) | 2 | -0.00179 |
| BMP2KL (BMP2 inducible kinase like (pseudogene)) | 3 | 0.33 |

Continued, starting with the last 8 of the part before.
| gene | reagent | G2 robust z-score |
| --- | --- | --- |
| ETV3 (ETS variant transcription factor 3) | 2 | 0.729 |
| ETV3 (ETS variant transcription factor 3) | 3 | 4.07 |
| SIX5 (SIX homeobox 5) | 1 | -0.315 |
| SIX5 (SIX homeobox 5) | 2 | -0.517 |
| SIX5 (SIX homeobox 5) | 3 | -0.619 |
| BMP2KL (BMP2 inducible kinase like (pseudogene)) | 1 | 4.62 |
| BMP2KL (BMP2 inducible kinase like (pseudogene)) | 2 | -0.00179 |
| BMP2KL (BMP2 inducible kinase like (pseudogene)) | 3 | 0.33 |
| PARVG (parvin gamma) | 1 | -0.261 |
| PARVG (parvin gamma) | 2 | 5.83 (active) |
| PARVG (parvin gamma) | 3 | -0.603 |
| ZNF2 (zinc finger protein 2) | 1 | 0.385 |
| ZNF2 (zinc finger protein 2) | 2 | -0.589 |
| ZNF2 (zinc finger protein 2) | 3 | -0.495 |
| SLC35D1 | 1 | -0.0976 |
| SLC35D1 | 2 | -0.547 |
| SLC35D1 | 3 | -0.233 |
| LINC00326 (long independently transcribed non-coding RNA 326) | 1 | 0.147 |
| LINC00326 (long independently transcribed non-coding RNA 326) | 2 | -0.715 |
| LINC00326 (long independently transcribed non-coding RNA 326) | 3 | -0.319 |
| METTL6 (methyltransferase 6, tRNA N3-cytidine) | 1 | -0.216 |
| METTL6 (methyltransferase 6, tRNA N3-cytidine) | 2 | 4.73 |
| METTL6 (methyltransferase 6, tRNA N3-cytidine) | 3 | -0.226 |
| OTOL1 (otolin 1) | 1 | -1.26 |
| OTOL1 (otolin 1) | 2 | 0.612 |
| OTOL1 (otolin 1) | 3 | -0.748 |
| CNIH4 (cornichon family member 4) | 1 | -0.334 |
| CNIH4 (cornichon family member 4) | 2 | 2.95 |
| CNIH4 (cornichon family member 4) | 3 | -1.11 |
| CNR2 (cannabinoid receptor 2) | 1 | 1.48 |
| CNR2 (cannabinoid receptor 2) | 2 | 0.677 |
| CNR2 (cannabinoid receptor 2) | 3 | 3.44 |
| MYT1L-AS1 (MYT1L antisense RNA 1) | 1 | -0.391 |
| MYT1L-AS1 (MYT1L antisense RNA 1) | 2 | 0.889 |
| MYT1L-AS1 (MYT1L antisense RNA 1) | 3 | 5.01 (active) |
| SLC18A1 | 1 | -0.281 |
| SLC18A1 | 2 | 2.32 |
| SLC18A1 | 3 | 1.55 |
| LOC642355 (nucleoside diphosphate kinase, mitochondrial-like) | 1 | 0.244 |
| LOC642355 (nucleoside diphosphate kinase, mitochondrial-like) | 2 | -0.135 |
| LOC642355 (nucleoside diphosphate kinase, mitochondrial-like) | 3 | -0.124 |
| GPR42 (G protein-coupled receptor 42) | 1 | -1 |
| GPR42 (G protein-coupled receptor 42) | 2 | -0.693 |
| GPR42 (G protein-coupled receptor 42) | 3 | -0.759 |
| CHAF1A (chromatin assembly factor 1 subunit A) | 1 | 1.86 |
| CHAF1A (chromatin assembly factor 1 subunit A) | 2 | -0.275 |
| CHAF1A (chromatin assembly factor 1 subunit A) | 3 | 0.547 |
